Values from PubChem BioAssay AID504808 (Drosophila RNAi Screening Center, 2011).

Assay: 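Fly genes required to hold E2F transcription in check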 (primary screen)
Cell system: Drosophila S2 cells
Reagents: long dsRNA against Drosophila genes
Measurement: 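Firefly luciferase driven by E2F sites, normalised to Renilla luciferase on the same minimal promoter, measured by plate reader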
Direction: E2F firefly: higher = more E2F reporter activity; Renilla normaliser: higher = more normaliser reporter signal
Hit rule: 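Called active if the normalised E2F reporter went up by over 50%; the cutoff is arbitrary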
The screen tested about 21,000 reagents; this is a random part of those that have a named target and a result. Of all reagents, 18 (0.084%) were called active. 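Raw counts without plate normalisation, one of two replicates; the ratio scores behind the calls were not deposited.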 Names joined by + are all predicted targets of the reagent. No sequences are given here. The record does not give: the amount of reagent, the time to read-out.

| gene | DRSC id | E2F firefly, rep 1 | Renilla normaliser, rep 1 | activity call |
| --- | --- | --- | --- | --- |
| Ugt37B1 | DRSC03225 | 1.55e5 | 5422 | inactive |
| Rab11 | DRSC16809 | 1.06e5 | 6178 | inactive |
| CG7745 | DRSC07037 | 2947 | 183 | inactive |
| GstS1 | DRSC07436 | 72455 | 3045 | inactive |
| Lk | DRSC10022 | 1.59e5 | 8012 | inactive |
| Ugt303B2 | DRSC14198 | 93579 | 5234 | inactive |
| Dpck | DRSC12575 | 1.25e5 | 7137 | inactive |
| CG11414 | DRSC04110 | 85980 | 3585 | inactive |
| Amy-d + Amy-p | DRSC21242 | 1.31e5 | 7043 | inactive |
| Hpd | DRSC11670 | 87953 | 4128 | inactive |
| CG14982 | DRSC08440 | 71043 | 3728 | inactive |
| CG5828 | DRSC02900 | 1.63e5 | 5008 | inactive |
| CG10038 | DRSC14178 | 64719 | 3563 | inactive |
| CG15258 | DRSC02478 | 1.15e5 | 4019 | inactive |
| CG8490 | DRSC07194 | 151 | 36 | inactive |
| Tmtc2 | DRSC00272 | 80671 | 3258 | inactive |
| Pdha | DRSC18413 | 1.14e5 | 5743 | inactive |
| CG13409 | DRSC14585 | 1.42e5 | 7362 | inactive |
| SIDL | DRSC16077 | 75920 | 3829 | inactive |
| CG7627 | DRSC03065 | 1.11e5 | 4696 | inactive |
| CG10469 | DRSC09729 | 80803 | 3857 | inactive |
| caps | DRSC11333 | 1.50e5 | 6277 | inactive |
| CG16753 | DRSC08489 | 71195 | 3143 | inactive |
| CG33704 | DRSC03838 | 1.20e5 | 5074 | inactive |
| CG9517 (retired record) | DRSC20192 | 1.52e5 | 7022 | inactive |
| CG9517 (retired record) | DRSC20193 | 1.61e5 | 6925 | inactive |
| obst-F | DRSC10805 | 1.13e5 | 5428 | inactive |
| CG1999 | DRSC18199 | 7813 | 712 | inactive |
| CG2061 | DRSC19348 | 8319 | 656 | inactive |
| Cpr47Ea | DRSC07333 | 94049 | 4077 | inactive |
| CG15083 | DRSC06514 | 1.48e5 | 4557 | inactive |
| SMC3 | DRSC20227 | 1.51e5 | 6579 | inactive |
| CG17029 | DRSC10240 | 1.59e5 | 7411 | inactive |
| Reps | DRSC02940 | 1.38e5 | 5096 | inactive |
| Gbp3 | DRSC15206 | 98941 | 6001 | inactive |
| ksr | DRSC12379 | 1.53e5 | 5799 | inactive |
| Or47b | DRSC07492 | 1.00e5 | 4001 | inactive |
| snRNA:U1:95Cc + snRNA:U1:95Cb | DRSC13641 | 86424 | 3093 | inactive |
| ymp | DRSC13720 | 1.01e5 | 2848 | inactive |
| ymp | DRSC14482 | 1.02e5 | 5213 | inactive |
| Galphaf | DRSC11171 | 1.65e5 | 7241 | inactive |
| SsRbeta | DRSC11290 | 67644 | 3408 | inactive |
| CG13784 | DRSC00974 | 1.50e5 | 6755 | inactive |
| CG13784 | DRSC02287 | 1.08e5 | 217 | inactive |
| CG5969 | DRSC11789 | 71947 | 3101 | inactive |
| dib | DRSC08711 | 66332 | 3743 | inactive |
| Egfr | DRSC03871 | 1.32e5 | 4684 | inactive |
| Egfr | DRSC04613 | 83233 | 3292 | inactive |
| ND-18 | DRSC19441 | 1.34e5 | 6384 | inactive |

The list goes on; the last 3 above are carried over.
| gene | DRSC id | E2F firefly, rep 1 | Renilla normaliser, rep 1 | activity call |
| --- | --- | --- | --- | --- |
| Egfr | DRSC03871 | 1.32e5 | 4684 | inactive |
| Egfr | DRSC04613 | 83233 | 3292 | inactive |
| ND-18 | DRSC19441 | 1.34e5 | 6384 | inactive |
| CG31560 | DRSC12136 | 1.32e5 | 5838 | inactive |
| CG12540 | DRSC19471 | 1.40e5 | 6189 | inactive |
| CG14684 | DRSC14907 | 1.47e5 | 6119 | inactive |
| ND1 (retired record) | DRSC21273 | 1.26e5 | 4795 | inactive |
| Panx | DRSC04563 | 1.12e5 | 4814 | inactive |
| Jheh1 | DRSC06529 | 74575 | 3144 | inactive |
| Alms1b + Alms1a | DRSC18559 | 2046 | 876 | inactive |
| CheA84a | DRSC12669 | 76948 | 3590 | inactive |
| Npc2c | DRSC15523 | 1.35e5 | 6393 | inactive |
| Arl2 | DRSC14117 | 1.34e5 | 7254 | inactive |
| Ugt36A1 + CG15418 | DRSC00432 | 1.61e5 | 5075 | inactive |
| CG1090 | DRSC12150 | 76337 | 3381 | inactive |
| Loxl2 | DRSC04469 | 73787 | 2953 | inactive |
| Herp | DRSC02394 | 87989 | 4265 | inactive |
| MICU3 | DRSC13381 | 74440 | 2619 | inactive |
| MICU3 | DRSC15613 | 73354 | 4051 | inactive |
| su(f) | DRSC20907 | 1.35e5 | 6543 | inactive |
| Hr3 | DRSC06118 | 1.21e5 | 4369 | inactive |
| Hr3 | DRSC07441 | 2737 | 186 | inactive |
| RpL18A | DRSC07538 | 85562 | 5588 | inactive |
| Myt1 | DRSC11228 | 83972 | 3406 | inactive |
| Sur | DRSC03447 | 82063 | 3230 | inactive |
| CG3176 + CR18166 + CG32817 | DRSC17271 | 79591 | 2595 | inactive |
| CG3176 + CR18166 + CG32817 | DRSC17282 | 74103 | 2338 | inactive |
| CG3176 + CR18166 + CG32817 | DRSC18288 | 1855 | 844 | inactive |
| CG7720 | DRSC16306 | 79624 | 3436 | inactive |
| CG7720 | DRSC16307 | 52161 | 3667 | inactive |
| Baldspot | DRSC09671 | 1.50e5 | 8142 | inactive |
| CG13492 | DRSC04137 | 1.08e5 | 4474 | inactive |
| CG10591 | DRSC09748 | 78037 | 3891 | inactive |
| ACC | DRSC06059 | 94862 | 4886 | inactive |
| ACC | DRSC07249 | 2458 | 258 | inactive |
| CG6664 | DRSC10690 | 72078 | 3955 | inactive |
| GM130 | DRSC04617 | 86391 | 3205 | inactive |
| lectin-28C | DRSC03010 | 1.48e5 | 5408 | inactive |
